Measurements reported in PubChem BioAssay AID1259308 (NCATS, 2017).
The deposit covers about 59,000 reagents; below is a random part of them. Of all reagents, about 1,510 (2.6%) were called active. 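Calls use total luciferase alone and ignore viability, so some active siRNAs may act by altering cell number.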 Unmarked entries are inactive. The numbers tell different reagents against one gene apart. No sequences are given here.

Aim: 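Candidate targets for better recombinant protein yield in mammalian cells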 (primary screen)
System: human HEK293 embryonic kidney cells stably expressing firefly luciferase (HEK-CMV-Luc2-Hygro)
Knock-down reagent: single siRNA against human genes, 0.8 pmol siRNA per well
Time to read-out: 72 h
Measurement: 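Reporter luminescence and viable-cell signal on separate replicate plates, given as percent of non-targeting control and median/MAD z-scores, plus per-cell luciferase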
Scale: total luciferase, z-score and total luciferase, % of control: higher = more reporter protein produced; luciferase per cell, z-score: higher = more reporter output per viable cell; viable cells, % of control: higher = more viable cells
Rule for the call: 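An siRNA counts as active if its total luciferase robust z-score exceeds 3; genes with two or more such siRNAs out of three were retested with fresh siRNAs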
Meaning of the calls: active = raised luciferase; inactive = no rise

gene knocked down | reagent | total luciferase, z-score | total luciferase, % of control | luciferase per cell, z-score | viable cells, % of control
RAB13 (GeneID 5872) | 1 | 0.571 | 93.2 | 0.822 | 83.9
RAB13 (GeneID 5872) | 2 | -0.407 | 73.8 | -0.525 | 94.7
RAB13 (GeneID 5872) | 3 | -0.839 | 65.2 | -0.938 | 93.3
SLC9A3 (GeneID 6550) | 1 | 1.08 | 103 | 0.763 | 94.5
SLC9A3 (GeneID 6550) | 2 | 0.469 | 91.2 | 0.368 | 92.5
SLC9A3 (GeneID 6550) | 3 | 1.2 | 106 | 2.27 | 65.1
ANKS1A (GeneID 23294) | 1 | -0.224 | 77.4 | -0.917 | 110
ANKS1A (GeneID 23294) | 2 | -0.857 | 64.8 | -1.27 | 101
ANKS1A (GeneID 23294) | 3 | -0.516 | 71.6 | -0.754 | 97.6
GRM8 (GeneID 2918) | 1 | -0.675 | 68.5 | -0.338 | 83.6
GRM8 (GeneID 2918) | 2 | -0.462 | 72.7 | -0.359 | 89.3
GRM8 (GeneID 2918) | 3 | -0.177 | 78.4 | -0.153 | 91.2
PENK (GeneID 5179) | 1 | 0.592 | 93.7 | -0.0908 | 107
PENK (GeneID 5179) | 2 | -1.32 | 55.6 | -0.926 | 79.3
PENK (GeneID 5179) | 3 | 0.246 | 86.8 | -0.0658 | 98.7
ZNF512B (GeneID 57473) | 1 | -0.501 | 71.9 | -0.872 | 101
ZNF512B (GeneID 57473) | 2 | 1.57 | 113 | 2.48 | 65.7
ZNF512B (GeneID 57473) | 3 | -0.311 | 75.7 | -0.392 | 93.8
SSU72P1 (GeneID 286528) | 1 | -0.0179 | 81.5 | 0.146 | 87.7
SSU72P1 (GeneID 286528) | 2 | -0.175 | 78.4 | -0.56 | 102
SSU72P1 (GeneID 286528) | 3 | 0.0155 | 82.2 | -0.217 | 97.2
EDC4 (GeneID 23644) | 1 | 0.00671 | 82 | 0.286 | 85
EDC4 (GeneID 23644) | 2 | -1.41 | 53.9 | -0.574 | 70.1
EDC4 (GeneID 23644) | 3 | 2.41 | 130 | 1.77 | 91.1
TMEM114 (GeneID 283953) | 1 | -1.3 | 56.1 | -0.592 | 73.2
TMEM114 (GeneID 283953) | 2 | -0.542 | 71.1 | -0.304 | 86.1
TMEM114 (GeneID 283953) | 3 | -1.44 | 53.3 | -1.23 | 82.2
SNRPA1 (GeneID 6627) | 1 | -0.257 | 76.8 | -0.343 | 93.9
SNRPA1 (GeneID 6627) | 2 | 0.357 | 89 | 0.873 | 79
SNRPA1 (GeneID 6627) | 3 | 2.22 | 126 | 3.24 | 60.1
BTNL3 (GeneID 10917) | 1 | 1.48 | 111 | 1.21 | 90.5
BTNL3 (GeneID 10917) | 2 | 0.228 | 86.4 | -0.0367 | 97.5
BTNL3 (GeneID 10917) | 3 | -0.792 | 66.1 | -0.408 | 82.3
CDKL1 (GeneID 8814) | 1 | -0.0305 | 81.3 | 0.413 | 81.5
CDKL1 (GeneID 8814) | 2 | -0.201 | 77.9 | -0.363 | 95.8
CDKL1 (GeneID 8814) | 3 | -1.28 | 56.5 | -1.06 | 83.5
LIPJ (GeneID 142910) | 1 | 0.904 | 99.9 | -0.211 | 118
LIPJ (GeneID 142910) | 2 | -0.451 | 72.9 | -0.237 | 86.7
LIPJ (GeneID 142910) | 3 | 0.463 | 91.1 | -0.0601 | 103

A portion of the results above, as a working copy:
gene knocked down | reagent | total luciferase, z-score | total luciferase, % of control | luciferase per cell, z-score | viable cells, % of control
TMEM114 (GeneID 283953) | 2 | -0.542 | 71.1 | -0.304 | 86.1
TMEM114 (GeneID 283953) | 3 | -1.44 | 53.3 | -1.23 | 82.2
SNRPA1 (GeneID 6627) | 1 | -0.257 | 76.8 | -0.343 | 93.9
SNRPA1 (GeneID 6627) | 2 | 0.357 | 89 | 0.873 | 79
SNRPA1 (GeneID 6627) | 3 | 2.22 | 126 | 3.24 | 60.1
